No constants are given. Whether binding was seen depends on the method and setting. Binding seen in cells or lysates may run through a third protein. Binding calls can cover weak binding; strength is not graded here. Sequences can lack the tags named with a protein. Blank lines part the entries; values can stand above or below the molecule they belong to.
How the values were obtained:
Myc-tagged SUN5 = target: T1, Myc-tagged SUN5 (UniProt Q9DA32); assay: co-IP; tagged proteins co-expressed two at a time in HEK293T cells; precipitated by the tag of the bait
T1 sequence: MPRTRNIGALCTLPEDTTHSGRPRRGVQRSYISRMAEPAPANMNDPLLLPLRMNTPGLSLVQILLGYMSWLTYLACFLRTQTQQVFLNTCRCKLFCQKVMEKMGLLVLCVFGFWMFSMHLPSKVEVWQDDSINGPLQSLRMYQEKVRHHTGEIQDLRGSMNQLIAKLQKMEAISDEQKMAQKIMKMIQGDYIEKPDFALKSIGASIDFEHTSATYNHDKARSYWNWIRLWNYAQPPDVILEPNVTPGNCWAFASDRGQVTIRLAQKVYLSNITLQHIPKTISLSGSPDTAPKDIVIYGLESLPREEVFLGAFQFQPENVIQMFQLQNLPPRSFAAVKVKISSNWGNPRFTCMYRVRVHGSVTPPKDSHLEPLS

Flag-tagged CCDC188 = assay: as above

binding (Myc-tagged SUN5): binds
Molecule: Flag-tagged CCDC188

binding (Flag-tagged CCDC188): binds
B1: Myc-tagged PMFBP1 (protein, UniProt Q9WVQ0 1-1022)
chain: MLKLKGELRTAKGLKNEAGERDRDVSNLNSKLLSLQLDIKNLHDVCKRQGKTLQENQLCVEEAMLKANHNKKQAQTLVFTDNQMDFRVNKQYHLRQLQQLKKKLLTLQQELEFRTQELQASYCSLLQYQSILEKQTSDLLVLHRHCKLKEDEVILYEEEMGNHSKSTGEKLHLAQEQLALAGDKILSLERSLNLYRDKYQTSLSNIELLECQVKMLEGELSGLIGQDPENKGDHPKVRIYTSPCVIQEHQETLKRLSEVWQKVSEQDDLIQELRNKLACSNSLVLEREEALIKLQAEFASYTATHRHPPTSSEDCEDITKILKHLQEQKDSQCLHVEEYQNLVKDLRMELEAVSEQKKKIMKDMMKLELDLHGLREETSCVIEKKDKETVFLQYRLQDLQQQYTESQKLSLKKDKLLQDKDERLHELEKNLMQVQNSLREKEAELEKLQCTTKELDTSLQEARQSTSKIDCEALRAEIQKLKDSLEEAREQLKVSDQNLTQSKEEAHLSASSLEDAHRKIENCLLQDKQKEEVIKDLQSQLHKLQKESSKIEEERKHNRQRLQELSSELSEGQRRLSNAEKEKSLLQKTLDEDEKKIDELFHSTQVSEQKQRELTNSIRKLEEELLEIKGLLEEKREQLKKSKEQEKALEEEIEALRQEAKRKEKMAKEHLRKLDEEKENLQAELTSRSSHLDSSLNKYNSSQKVIQELNAEIARQKDSIMILQTQLDSAIQKEKNCFQNMVSKEAYEELVRKSGNCQDDLTQALEKLTQATSETKSLNRSLQQTQERKAQLEDEIAAYEERMKKLNMELKKLQGFQQQSEQEVHNFDKKLEEMSNQVLQWQRQHQSDLKMLAAKESQLREFQEEMATLRESLLADEKEPYSPPAKLTPKETCRHHRENDQIMNNVEQWAKEQKIANEKLGNKLREQVKYIAKLTGEKDHLHNVMVHLQQENKKLKNEIEEKKLKAGNPRICVKAFPPNKLEPSQKGKLCCALGWRGIPQDLTPKTDHKYMGLPHSSGSSYC

Source: article PMC11365554
